Some of the results follow. Hit calls seldom repeat between salt and free forms of one compound.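 Kinases were expressed as nanoluciferase fusions in K562 cells and luminescence was read every 4 h between 2 and 18 h as percent of control, DMSO set to 100% and a positive control to 0%. A time point counts as decreased when the signal drops significantly (2 sigma). The hit call is the authors' own, does not follow from the count of time points alone, and its rule is not shown.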
The compounds below were run against MAP4K2 (UniProt Q12851) (assay: kinase-Nluc reporter destabilization hit call (1 = scored as downregulated) (binary); higher = compound decreases kinase abundance). Conditions: K562; 2-18 h.

By UniProt entry, the sequences of proteins in these tests, tags left out. Where a name states a change or a piece, a line headed by the entry shows the natural chain unless it says otherwise.
UniProt Q12851: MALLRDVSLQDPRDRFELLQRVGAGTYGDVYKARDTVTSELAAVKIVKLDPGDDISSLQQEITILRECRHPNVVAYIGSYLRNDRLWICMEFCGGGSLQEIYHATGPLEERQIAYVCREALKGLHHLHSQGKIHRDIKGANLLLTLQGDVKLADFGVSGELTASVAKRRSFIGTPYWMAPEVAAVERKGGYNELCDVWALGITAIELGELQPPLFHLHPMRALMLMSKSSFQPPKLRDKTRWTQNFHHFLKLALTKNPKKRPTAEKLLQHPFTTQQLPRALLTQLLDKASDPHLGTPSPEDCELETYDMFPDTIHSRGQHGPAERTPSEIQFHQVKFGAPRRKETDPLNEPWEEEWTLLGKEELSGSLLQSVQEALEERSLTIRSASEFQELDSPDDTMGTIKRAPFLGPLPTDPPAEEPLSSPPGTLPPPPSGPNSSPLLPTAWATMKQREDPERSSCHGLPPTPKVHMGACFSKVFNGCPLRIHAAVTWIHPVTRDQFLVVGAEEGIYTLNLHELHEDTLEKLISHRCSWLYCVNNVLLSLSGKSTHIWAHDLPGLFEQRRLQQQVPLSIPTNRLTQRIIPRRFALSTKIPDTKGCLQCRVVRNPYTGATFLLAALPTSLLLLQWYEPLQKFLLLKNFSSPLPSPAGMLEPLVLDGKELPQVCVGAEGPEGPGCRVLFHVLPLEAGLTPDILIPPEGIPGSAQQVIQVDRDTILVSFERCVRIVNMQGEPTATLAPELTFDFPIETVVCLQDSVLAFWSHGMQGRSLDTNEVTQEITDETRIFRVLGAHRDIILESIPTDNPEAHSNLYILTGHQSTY

kinase-Nluc reporter destabilization hit call, inactive:
O=C(O)c1cc(N(Cc2ccccc2O)Cc2ccccc2O)ccc1O [Lavendustin B] (10 µM) 0, Cc1cnc(NC2CCOCC2)nc1-n1cnc(C(=O)N[C@H](CN)c2cc(F)cc(Cl)c2)c1 (10 µM) 0, Cn1ncc2cc(-c3cnc(N)c(Cl)c3N3CCC4(CCNC4=O)CC3)ccc21 (10 µM) 0, CC(C)c1cccc(C(C)C)c1N1C(=O)c2ccc(N)cc2C1=O (2.5 µM) 0, CC[C@@](C)(Nc1ccnc(-c2c[nH]c3ncccc23)n1)C(=O)NCC(F)(F)F [Decernotinib] (10 µM) 0, NC1=NCCN1CC(=O)O [Cyclocreatine] (10 µM) 0, Nc1c(C(=O)NCc2ccc(C(=O)NCCCC3CCCCC3)cc2)cnn1-c1ccccc1 (2.5 µM) 0, C[C@H](Nc1ncnc2nc[nH]c12)c1cc2cccc(Cl)c2c(=O)n1-c1ccccc1 [Duvelisib] (10 µM) 0, Cc1cc(Nc2nc(CC3(C(=O)O)CCN(C(=O)c4cccc(Cl)c4Cl)CC3)ccc2F)n[nH]1 (10 µM) 0, C[C@@H]1O[C@@H](O[C@@H]2[C@@H](O)[C@H](OCCc3ccc(O)c(O)c3)O[C@H](CO)[C@H]2OC(=O)/C=C/c2ccc(O)c(O)c2)[C@H](O)[C@H](O)[C@H]1O [Verbascoside] (10 µM) 0, O=C1/C(=C\c2ccc(Cl)cc2)C=C(c2ccccc2)N1c1ccc(O)cc1 (2.5 µM) 0, Nc1nccc(Oc2ccc(NC(=O)c3c[nH]cc(-c4ccc(F)cc4)c3=O)cc2F)c1Cl (10 µM) 0, COc1ccc(-c2c(C)nn3c(NCCN4CCOCC4)cc(C)nc23)cc1OC (10 µM) 0, O=C1NC(=O)C(c2cnc3ccccn23)=C1c1cn2c3c(cc(F)cc13)CNCC2 [GSK-3 inhibitor 1] (2.5 µM) 0, CCCCCCCC/C=C\CCCCCCCCCCCC(=O)O [Erucic acid] (10 µM) 0, O=C(Nc1nc2ccccc2[nH]1)c1cccc([N+](=O)[O-])c1 [IRAK-4 protein kinase inhibitor 2] (10 µM) 0, Cc1cccc(-c2[nH]c(C(C)(C)C)nc2-c2ccc3nccnc3c2)n1 (10 µM) 0, C[C@@H]1CC(=O)c2c(ccc3c2C(=O)c2cccc(O)c2C3=O)C1 [Ochromycinone] (10 µM) 0, CN1C(=O)[C@@H](NC(=O)c2n[nH]c(Cc3ccccc3)n2)COc2ccccc21 (10 µM) 0, CCc1cccc(CC)c1NC(=O)N1Cc2[nH]nc(NC(=O)c3ccc(N4CCN(C)CC4)cc3)c2C1 (2.5 µM) 0, COc1ccc(N=Nc2c(N)n[nH]c2N)cc1 (10 µM) 0, Cc1ccc(NC(=O)c2ccnc(C(F)(F)F)c2)cc1-c1cc(OCCO)nc(N2CCOCC2)c1 (10 µM) 0, CC(C)(O)[C@H]1CC[C@H](Nc2ccc3ncc(-c4cccc(C(F)(F)F)c4)n3n2)CC1 (10 µM) 0, CCn1c(=O)c(-c2cc[nH]n2)cc2c(C)nc(N)nc21 [Voxtalisib] (10 µM) 0, C[C@H](NC(=O)[C@H]1NCC[C@@H]1O)c1ccc(-c2noc(CCC3CCCC3)n2)cc1 (10 µM) 0, O=C1O[C@H]([C@@H](O)CO)C(O)=C1OP(=O)(O)O [2-Phospho-L-ascorbic acid (trisodium)] (10 µM) 0, Cn1cnc([N+](=O)[O-])c1C[N+](C)(C)C/C=C/C(=O)Nc1cc2c(Nc3ccc(Cl)c(Br)c3)ncnc2cn1 [Tarloxotinib (bromide)] (10 µM) 0, CC1(C)Cc2c(sc(NC(=S)NC(=O)c3ccccc3)c2C(=O)O)CO1 (10 µM) 0, CCCCCCCCCCCCCCCCOP(=O)([O-])OCC[N+](C)(C)C [Miltefosine] (10 µM) 0, N#CC(c1ccnc(OCc2ccc(CN3CCOCC3)cc2)n1)c1nc2ccccc2s1 (stereo not drawn) [Bentamapimod] (2.5 µM) 0, Cc1cnc(-c2ccc(-c3ccc(NC(=O)Nc4cccc(C(F)(F)F)c4)cc3F)c3c2C(=O)NC3)[nH]1 (10 µM) 0, CC(C)=CC(=O)O[C@H]1Cc2cc3ccc(=O)oc3cc2OC1(C)C [Decursin] (10 µM) 0, O=C(N[C@@H](C1CC1)C(F)(F)F)c1cc(-c2cnn3cc(-c4ccc(F)cc4)cnc23)cs1 (10 µM) 0, CNc1cc(Nc2cccn(-c3ccccn3)c2=O)nn2c(C(=O)N[C@@H]3C[C@@H]3F)cnc12 (2.5 µM) 0, CS(=O)(=O)c1ccc(-c2cnc(N)c(-c3ccc(C(F)(F)F)nc3)c2)cc1 (10 µM) 0, CN(c1ccc(NC(=O)Nc2ccc(OC(F)(F)F)cc2)cc1)c1ccnc(Nc2cccc(S(N)(=O)=O)c2)n1 (2.5 µM) 0, Cc1ccc2c(Nc3cccc(Cl)c3F)nccc2c1NC(=O)c1csc2c(N)ncnc12 [Belvarafenib] (10 µM) 0, COc1nn(C)cc1Nc1nccc(-c2c[nH]c3c(NC(=O)[C@@H](C)N4CCN(C)CC4)cccc23)n1 (10 µM) 0
